Reference: PubChem BioAssay AID540276 (National Center for Advancing Translational Sciences (NCATS), 2011)
Where “and” joins values, the source holds several entries; their conditions need not be identical. Identical values can stand only once. Screen size: about 300,000 compounds; about 5,400 (1.8%) were called active. Inconclusive results, whose numbers are uncertain, are shown with a selection of clear calls. The call rests on the fitted dose curve; tested in HEK293 cells. Potencies beside an inconclusive call are fits to weak or partial responses and may not hold up.

Test: qHTS for inhibitors of binding or entry into cells for Marburg Virus
Conditions: Marburg virus pseudotyped entry inhibition, cell reporter; series mostly up to 37.8 µM
Potency means the concentration at half of the fitted maximal effect.

Structure (SMILES)	Potency
COc1ccccc1N1CCN(S(=O)(=O)c2ccc(Cl)s2)CC1	inconclusive: 7.3 µM [inhibitor, full curve, poor fit]
CC(C)=CCC/C(C)=C/CN(CC(C)O)CC(C)O (configuration not stated)	inconclusive: 20.6 µM [activator, partial curve, poor fit]
Fc1ccc(Nc2cccc3nccnc23)cc1	inconclusive: 15.8 µM [inhibitor, single point]
O=C(Oc1cccc(Nc2ncnc3ccccc23)c1)c1cccnc1	inactive
CC(=O)c1cn(CC(=O)Nc2ccccc2C)c2ccccc12	inconclusive: 11.2 µM [inhibitor, partial curve, poor fit]
CCn1c2ccccc2c2cc(C3C(C#N)=C(C)NC(C)=C3C#N)ccc21	inactive
CCOCCCNCc1cccc(OC)c1	inactive
O=C1/C(=C/c2cccnc2)SC(=S)N1Nc1ccccc1	inactive
CCN1C(=S)NC(c2cccc(C(F)(F)F)c2)C(C(=O)OC)=C1C (configuration not stated)	inconclusive: 2.66 µM [activator, partial curve, poor fit]
Cc1cccc(C(=O)N2CCN(Cc3nc4sc5c(c4c(=O)[nH]3)CCCC5)CC2)c1	inactive
CNC(=O)c1c(NC(=O)C2=COCCO2)sc2c1CCC(C)C2 (configuration not stated)	inconclusive: 35.5 µM [inhibitor, single point]
COc1ccc(N2CCN(C(=O)C3CCCN(S(=O)(=O)c4ccc5c(c4)oc(=O)n5C)C3)CC2)cc1 (configuration not stated)	inactive
Cc1ccc(SCc2nnc(N)s2)cc1	inconclusive: 6.31 µM [activator, partial curve, poor fit]
O=C(C(NS(=O)(=O)c1cccs1)c1ccccc1)N1CCN(c2ccccc2F)CC1 (configuration not stated)	inconclusive: 32.6 µM [inhibitor, single point]
Cc1nn(-c2ccccc2)c(N)c1C1(O)C(=O)N(C(C)C)c2ccccc21 (configuration not stated)	inconclusive: 1.46 µM [activator, full curve, poor fit]
Cc1ccc(C)c(Cn2nnc(C(=O)Nc3ccc4c(c3)OCCO4)c2N)c1	inconclusive: 0.1 µM [activator, full curve, poor fit]
O=C(/C=C/c1ccncc1)c1ccc(NC(=O)c2ccccc2F)cc1	inconclusive: 12.6 µM [inhibitor, partial curve, poor fit]
COc1cc(CN2CCN(c3cccc(C)c3C)CC2)cc(OC)c1O	inconclusive: 29.1 µM [inhibitor, single point]
c1ccc(-c2noc(CSc3nnc(Cc4cccs4)n3-c3ccccc3)n2)cc1	inconclusive: 20 µM [inhibitor, single point]
CN(C)CCNC(=O)C(=O)Nc1ccc2c(c1)N(S(=O)(=O)c1cccs1)CCC2	inconclusive: 7.94 µM [inhibitor, partial curve, poor fit]
O=C(CN1CCCC1)N1CCCc2c1c(=O)oc1ccc(OCc3ccccc3)cc21	inconclusive: 18.3 µM [inhibitor, single point]

Structure (SMILES)	Potency
CCOc1cc(C(=O)O/N=C(\N)c2ccc([N+](=O)[O-])cc2)cc(OCC)c1OCC	inconclusive: 0.82 µM [inhibitor, full curve, poor fit]
C/C=C1/CC(C)C(C)(O)C(=O)OCC2CCN3CCC(OC1=O)C23 (configuration not stated)	inconclusive: 20 µM [activator, single point]
CCn1c(CSCc2ccc(Cl)cc2)n[nH]c1=S	inconclusive: 35.5 µM [inhibitor, single point]
C/C(=N\NC(=O)c1ccc(Cl)cc1)c1ccc(Br)s1	inactive
Oc1ccc(/C=N/Nc2ccc(C(F)(F)F)cn2)cc1O	inconclusive: 6.31 µM [inhibitor, full curve, poor fit]
CN(C)C(=O)c1ccc(N=Nc2c(O)c3ccccc3[nH]c2=O)cc1	inconclusive: 14.1 µM [inhibitor, single point]
Cc1cccc(NC(=O)c2onc3c2CCCC3)c1C	inconclusive: 0.562 µM [activator, full curve]
Cc1nc2ccccc2cc1C(=O)N/N=C/c1ccccc1[N+](=O)[O-]	inconclusive: 0.794 µM [inhibitor, single point]
Cc1ccccc1-n1nnnc1SCC(=O)N(C)C1CCS(=O)(=O)C1 (configuration not stated)	inconclusive: 35.5 µM [inhibitor, single point]
Cc1ccc(C)c(NC(=O)c2ccc(N(C)S(C)(=O)=O)cc2)c1	inactive
CCSc1nnc(-c2ccccc2N=Cc2c(C)[nH]n(-c3ccccc3)c2=O)c(=O)[nH]1	inconclusive: 6.31 µM [inhibitor, single point]
CCOC(=O)c1cc2c(=O)n3ccccc3nc2n(CCOC)c1=NC(=O)c1c(-c2c(F)cccc2Cl)noc1C	inactive and inconclusive: 3.16 µM [inhibitor, partial curve, poor fit]
CCCCOc1ccc(NC(=S)Nc2cc(C)nc(SCCCC)n2)cc1	inconclusive: 0.631 µM [inhibitor, partial curve, poor fit]
O=C(c1ccccc1)n1nc(-c2ccc(Cl)cc2)nc1NCc1ccco1	inconclusive: 12.6 µM [activator, partial curve]
COCc1[nH]c(=S)c(C#N)cc1C(=O)OC	inactive
CCOC(=O)C1(Cc2ccccc2C(F)(F)F)CCN(C2CCC2)CC1	inconclusive: 10 µM [inhibitor, partial curve, poor fit]
COc1ccc(N(C(=O)c2snc(C(N)=O)c2N)C(C(=O)NC2CCCC2)c2cc(OC)ccc2OC)c(OC)c1 (configuration not stated)	inconclusive: 10 µM [inhibitor, partial curve, poor fit]
C/C(=N\NC(=O)CNc1cccc(C)c1)c1ccc(Br)s1	inactive
Brc1ccc(C2Nc3cccc4cccc(c34)N2)o1	inactive
COc1ccc(CCNC(=O)CN(c2ccc(OC)cc2)S(C)(=O)=O)cc1	inconclusive: 0.562 µM [inhibitor, full curve, poor fit]
O=C(CCS(=O)(=O)c1cccs1)Nc1ccc(C(=O)NCc2ccc(F)cc2)cc1	inconclusive: 0.562 µM [inhibitor, full curve, poor fit]
